Results taken from the supplement of paper PMC8728848.
The list shows a part of the results.

Key:
Assay in all cases: glycan array binding signal (z-score within array); higher = stronger binding
Conditions in all cases: glycan notation: IUPAC condensed, linker removed
[1] = biological target: Gal(b1-4)GlcNAc(b1-3)Gal(b1-4)GlcNAc(b1-3)Gal(b1-4)GlcNAc(b1-3)Gal(b1-4)GlcNAc(b1-2)Man(a1-3)[Gal(b1-4)GlcNAc(b1-3)Gal(b1-4)GlcNAc(b1-3)Gal(b1-4)GlcNAc(b1-3)Gal(b1-4)GlcNAc(b1-2)Man(a1-6)]Man(b1-4)GlcNAc(b1-4)[Fuc(a1-6)]GlcNAc
Method in brief: (§1)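 Glycan array data were curated from 3228 arrays in the Consortium for Functional Glycomics database and kept only where the protein sequence was available. Glycan names were converted to IUPAC-condensed notation, and columns mapping to the same glycan were averaged. The binding signal is a within-array Z-score, averaged across arrays of the same protein sequence at different concentrations or buffers and across linkers. Negative Z-scores can be read as non-binding.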

[2] = biological target: Gal(b1-4)GlcNAc(b1-3)Gal(b1-4)GlcNAc(b1-3)Gal(b1-4)GlcNAc(b1-3)Gal(b1-4)GlcNAc(b1-2)[Gal(b1-4)GlcNAc(b1-3)Gal(b1-4)GlcNAc(b1-3)Gal(b1-4)GlcNAc(b1-3)Gal(b1-4)GlcNAc(b1-6)]Man(a1-6)[Gal(b1-4)GlcNAc(b1-3)Gal(b1-4)GlcNAc(b1-3)Gal(b1-4)GlcNAc(b1-3)Gal(b1-4)GlcNAc(b1-2)Man(a1-3)]Man(b1-4)GlcNAc(b1-4)[Fuc(a1-6)]GlcNAc
Method in brief: as §1

[3] = biological target: Gal(b1-4)GlcNAc(b1-3)Gal(b1-4)GlcNAc(b1-3)Gal(b1-4)GlcNAc(b1-3)Gal(b1-4)GlcNAc(b1-3)Gal(b1-4)GlcNAc(b1-2)Man(a1-3)[Gal(b1-4)GlcNAc(b1-3)Gal(b1-4)GlcNAc(b1-3)Gal(b1-4)GlcNAc(b1-3)Gal(b1-4)GlcNAc(b1-3)Gal(b1-4)GlcNAc(b1-2)Man(a1-6)]Man(b1-4)GlcNAc(b1-4)GlcNAc
Method in brief: as §1

[4] = biological target: Gal(b1-4)GlcNAc(b1-3)Gal(b1-4)GlcNAc(b1-3)Gal(b1-4)GlcNAc(b1-3)Gal(b1-4)GlcNAc(b1-3)Gal(b1-4)GlcNAc(b1-2)Man(a1-3)[Gal(b1-4)GlcNAc(b1-3)Gal(b1-4)GlcNAc(b1-3)Gal(b1-4)GlcNAc(b1-3)Gal(b1-4)GlcNAc(b1-3)Gal(b1-4)GlcNAc(b1-2)Man(a1-6)]Man(b1-4)GlcNAc(b1-4)[Fuc(a1-6)]GlcNAc
Method in brief: as §1

[5] = biological target: Gal(b1-4)GlcNAc(b1-3)Gal(b1-4)GlcNAc(b1-3)Gal(b1-4)GlcNAc(b1-3)Gal(b1-4)GlcNAc(b1-3)Gal(b1-4)GlcNAc(b1-2)[Gal(b1-4)GlcNAc(b1-3)Gal(b1-4)GlcNAc(b1-3)Gal(b1-4)GlcNAc(b1-3)Gal(b1-4)GlcNAc(b1-3)Gal(b1-4)GlcNAc(b1-6)]Man(a1-6)[Gal(b1-4)GlcNAc(b1-3)Gal(b1-4)GlcNAc(b1-3)Gal(b1-4)GlcNAc(b1-3)Gal(b1-4)GlcNAc(b1-3)Gal(b1-4)GlcNAc(b1-2)Man(a1-3)]Man(b1-4)GlcNAc(b1-4)[Fuc(a1-6)]GlcNAc
Method in brief: as §1

[6] = biological target: Gal(b1-4)GlcNAc(b1-3)Gal(b1-4)GlcNAc(b1-3)Gal(b1-4)GlcNAc(b1-3)Gal(b1-4)GlcNAc(b1-3)Gal(b1-4)GlcNAc(b1-3)Gal(b1-4)GlcNAc(b1-2)Man(a1-3)[Gal(b1-4)GlcNAc(b1-3)Gal(b1-4)GlcNAc(b1-3)Gal(b1-4)GlcNAc(b1-3)Gal(b1-4)GlcNAc(b1-3)Gal(b1-4)GlcNAc(b1-3)Gal(b1-4)GlcNAc(b1-2)Man(a1-6)]Man(b1-4)GlcNAc(b1-4)GlcNAc
Method in brief: as §1

[7] = biological target: Gal(b1-4)GlcNAc(b1-3)Gal(b1-4)GlcNAc(b1-3)GalNAc
Method in brief: as §1

[8] = biological target: Gal(b1-4)GlcNAc(b1-3)Gal(b1-4)GlcNAc(b1-3)[Gal(b1-4)GlcNAc(b1-3)Gal(b1-4)GlcNAc(b1-6)]GalNAc
Method in brief: as §1

[9] = biological target: Gal(b1-4)GlcNAc(b1-3)Gal(b1-4)GlcNAc(b1-6)[Gal(b1-3)]GalNAc
Method in brief: as §1

[10] = biological target: Gal(b1-4)GlcNAc(b1-3)Gal(b1-4)[Fuc(a1-3)]GlcNAc(b1-3)Gal(b1-4)[Fuc(a1-3)]GlcNAc
Method in brief: as §1

[11] = biological target: Gal(b1-4)GlcNAc(b1-3)GalNAc
Method in brief: as §1

[12] = biological target: Gal(b1-4)GlcNAc(b1-3)[Fuc(a1-3)GlcNAc(b1-6)]Gal(b1-4)Glc
Method in brief: as §1

[13] = biological target: Gal(b1-4)GlcNAc(b1-3)[Gal(b1-4)GlcNAc(b1-6)]Gal(b1-4)GlcNAc
Method in brief: as §1

[14] = biological target: Gal(b1-4)GlcNAc(b1-3)[GlcNAc(b1-6)]Gal(b1-4)GlcNAc
Method in brief: as §1

[15] = biological target: Gal(b1-4)GlcNAc(b1-6)Gal(b1-4)GlcNAc
Method in brief: as §1

[16] = biological target: Gal(b1-4)GlcNAc(b1-6)GalNAc
Method in brief: as §1

[17] = biological target: Gal(b1-4)GlcNAc(b1-6)[Gal(b1-3)]GalNAc
Method in brief: as §1

[18] = biological target: Gal(b1-4)GlcNAc(b1-6)[Gal(b1-4)GlcNAc(b1-3)]GalNAc
Method in brief: as §1

[19] = biological target: Gal(b1-4)GlcNAc6P
Method in brief: as §1

[20] = biological target: Gal(b1-6)Gal
Method in brief: as §1

[21] = biological target: Gal3S(b1-3)GalNAc
Method in brief: as §1

[22] = biological target: Gal3S(b1-3)GlcNAc
Method in brief: as §1

[23] = biological target: Gal3S(b1-3)[Fuc(a1-4)]GlcNAc
Method in brief: as §1

B1: Protein L(B1-B4) (Finegoldia magna), Q51912 (protein)
chain: KEETPETPETDSEEEVTIKANLIFANGSTQTAEFKGTFEKATSEAYAYADTLKKDNGEYTVDVADKGYTLNIKFAGKEKTPEEPKEEVTIKANLIYADGKTQTAEFKGTFEEATAEAYRYADALKKDNGEYTVDVADKGYTLNIKFAGKEKTPEEPKEEVTIKANLIYADGKTQTAEFKGTFEEATAEAYRYADLLAKENGKYTVDVADKGYTLNIKFAGKEKTPEEPKEEVTIKANLIYADGKTQTAEFKGTFAEATAEAYRYADLLAKENGKYTADLEDGGYTINIRFAG
glycan array binding signal (z-score) [1]: 2.4 | glycan array binding signal (z-score) [2]: 1.29 | glycan array binding signal (z-score) [3]: 0.528 | glycan array binding signal (z-score) [4]: -0.475 | glycan array binding signal (z-score) [5]: 2.09 | glycan array binding signal (z-score) [6]: 0.532 | glycan array binding signal (z-score) [7]: 0.134 | glycan array binding signal (z-score) [8]: 4.22 | glycan array binding signal (z-score) [9]: 1.15 | glycan array binding signal (z-score) [10]: -0.157 | glycan array binding signal (z-score) [11]: -0.76 | glycan array binding signal (z-score) [12]: 0.353 | glycan array binding signal (z-score) [13]: -0.512 | glycan array binding signal (z-score) [14]: -0.842 | glycan array binding signal (z-score) [15]: -0.557 | glycan array binding signal (z-score) [16]: 0.521 | glycan array binding signal (z-score) [17]: -0.166 | glycan array binding signal (z-score) [18]: 0.339 | glycan array binding signal (z-score) [19]: 0.29 | glycan array binding signal (z-score) [20]: -0.387 | glycan array binding signal (z-score) [21]: -1.06 | glycan array binding signal (z-score) [22]: -0.911 | glycan array binding signal (z-score) [23]: -0.386
